In this experiment the test system is L1210 leukemia ip in BDF1 mice, survival T/C. Briefly: NCI In Vivo Anticancer Drug Screen. Data for tumor model L1210 Leukemia (intraperitoneal) in B6D2F1 (BDF1) mice. The following applies: higher T/C = longer survival.
The mark [1] stands for this setting: T/C endpoint: median survival time, dose: 128.0 mg/kg/injection, schedule: Q01DX009 (oral), vehicle: saline.

We go through five molecules from PubChem BioAssay AID248 (DTP/NCI, 2004).

The list does not hold the whole screen: it gathers tests that were run many times, whatever their T/C, doses with no T/C, and many T/C values between a quarter and a half above the control. Further doses and runs are listed elsewhere. T/C gives the treated animals as a percentage of the vehicle group. Some entries give survivors of the animals treated and no T/C: the source files T/C as zero there, which appears to mark a toxic dose or a test without result, not a measured value. Some doses without a T/C left all or most animals alive at the check, yet need not have been tolerated: survival well below the control is almost never listed, so the zero probably covers shortened survival too. Counts of survivors are from the toxicity check (mostly the fifth day) where no day follows; animals may have died later. Schedule codes are those of the source, read here as Q, the interval in days (D) or hours (H), X, the number of doses. Some entries hold several experiments; the results are listed from low to high. Where survival is the endpoint, the PubChem record calls one and a half times the control and up active, and a quarter to a half above the control has no call in these data; cut-offs in other NCI protocols can differ. Brackets with × stand for listed records that agree. Some T/C values carry the count of animals alive at the toxicity check (mostly the fifth day); without a count, all were alive then.

Turning to `N[C@H](C(=O)O)[C@H]1ON=C(Cl)[C@@H]1O`, the T/C is, setting by setting: (T/C endpoint: mean survival time, dose: 1.56 mg/kg/injection, schedule: Q01DX009 (ip), vehicle: saline) 103, 105, 111, 113 % of control; (T/C endpoint: mean survival time, dose: 3.12 mg/kg/injection, schedule: Q01DX009 (ip), vehicle: saline) 117, 122, 126, 127 % of control; (T/C endpoint: mean survival time, dose: 6.25 mg/kg/injection, schedule: Q01DX009 (ip), vehicle: saline) 120, 128, 138, 144 % of control; (T/C endpoint: mean survival time, dose: 11.0 mg/kg/injection, schedule: Q01DX009 (ip), vehicle: Klucel (hydroxypropylcellulose) (HPC)) 135 % of control; (T/C endpoint: mean survival time, dose: 12.5 mg/kg/injection, schedule: Q01DX009 (ip), vehicle: Klucel (hydroxypropylcellulose) (HPC)) 134 % of control; (T/C endpoint: mean survival time, dose: 12.5 mg/kg/injection, schedule: Q01DX009 (ip), vehicle: saline) 136, 137, 145, 148 % of control. In addition, the T/C (T/C endpoint: mean survival time, dose: 22.0 mg/kg/injection, schedule: Q01DX009 (ip), vehicle: Klucel (hydroxypropylcellulose) (HPC)) was 143 % of control; the T/C (T/C endpoint: mean survival time, dose: 25.0 mg/kg/injection, schedule: Q01DX009 (ip), vehicle: Klucel (hydroxypropylcellulose) (HPC)) was 148 % of control; the T/C (T/C endpoint: mean survival time, dose: 25.0 mg/kg/injection, schedule: Q01DX009 (ip), vehicle: saline) was 152, 159 (2×), 167 % of control; the T/C (T/C endpoint: mean survival time, dose: 44.0 mg/kg/injection, schedule: Q01DX009 (ip), vehicle: Klucel (hydroxypropylcellulose) (HPC)) is 142 % of control; the T/C (T/C endpoint: mean survival time, dose: 50.0 mg/kg/injection, schedule: Q01DX009 (ip), vehicle: Klucel (hydroxypropylcellulose) (HPC)) is 135 % of control; the T/C (T/C endpoint: mean survival time, dose: 50.0 mg/kg/injection, schedule: Q01DX009 (ip), vehicle: saline) is recorded as 154, 161, 165, 167 % of control. Also, the T/C by setting is: (T/C endpoint: mean survival time, dose: 100.0 mg/kg/injection, schedule: Q01DX009 (ip), vehicle: Klucel (hydroxypropylcellulose) (HPC)) 140 % of control; (T/C endpoint: mean survival time, dose: 100.0 mg/kg/injection, schedule: Q01DX009 (ip), vehicle: saline) 117, 130, 156, 161 % of control; (T/C endpoint: median survival time, dose: 3.12 mg/kg/injection, schedule: Q01DX009 (ip), vehicle: saline) 126 % of control; (T/C endpoint: median survival time, dose: 4.0 mg/kg/injection, schedule: Q03HX016 (ip), vehicle: saline) 142 % of control; (T/C endpoint: median survival time, dose: 6.25 mg/kg/injection, schedule: Q01DX009 (ip), vehicle: saline) 135 % of control; (T/C endpoint: median survival time, dose: 6.25 mg/kg/injection, schedule: Q03HX008 (ip), vehicle: saline) 140 % of control. Moreover, the T/C runs as follows: (T/C endpoint: median survival time, dose: 8.0 mg/kg/injection, schedule: Q01DX009 (ip), vehicle: saline) 127 % of control; (T/C endpoint: median survival time, dose: 8.0 mg/kg/injection, schedule: Q03HX008 (ip), vehicle: saline) 130 % of control; (T/C endpoint: median survival time, dose: 8.0 mg/kg/injection, schedule: Q03HX024 (ip), vehicle: saline) 137 % of control; (T/C endpoint: median survival time, dose: 12.5 mg/kg/injection, schedule: Q01DX009 (ip), vehicle: saline) 147 % of control; (T/C endpoint: median survival time, dose: 12.5 mg/kg/injection, schedule: Q03HX008 (ip), vehicle: saline) 146 % of control; (T/C endpoint: median survival time, dose: 16.0 mg/kg/injection, schedule: Q01DX009 (ip), vehicle: saline) 141 % of control. Moreover, the T/C (T/C endpoint: median survival time, dose: 16.0 mg/kg/injection, schedule: Q01DX009 (sc), vehicle: saline) was 127 % of control; the T/C (T/C endpoint: median survival time, dose: 16.0 mg/kg/injection, schedule: Q03HX008 (ip), vehicle: saline) is 137 % of control; the T/C (T/C endpoint: median survival time, dose: 16.0 mg/kg/injection, schedule: Q03HX024 (ip), vehicle: saline) was 138 % of control; the T/C (T/C endpoint: median survival time, dose: 25.0 mg/kg/injection, schedule: Q03HX008 (ip), vehicle: saline) was 143 % of control; the T/C (T/C endpoint: median survival time, dose: 25.0 mg/kg/injection, schedule: Q03HX024 (ip), vehicle: saline) was 141 % of control; the T/C (T/C endpoint: median survival time, dose: 25.0 mg/kg/injection, schedule: Q04DX003 (ip), vehicle: saline) was 127 % of control. Also, the T/C (T/C endpoint: median survival time, dose: 32.0 mg/kg/injection, schedule: Q01DX009 (ip), vehicle: saline) was 143 % of control; the T/C (T/C endpoint: median survival time, dose: 32.0 mg/kg/injection, schedule: Q01DX009 (sc), vehicle: saline) is 143 % of control; the T/C (T/C endpoint: median survival time, dose: 32.0 mg/kg/injection, schedule: Q03HX008 (ip), vehicle: saline) was 142 % of control; the T/C (T/C endpoint: median survival time, dose: 50.0 mg/kg/injection, schedule: Q01DX009 (ip), vehicle: saline) is 146 % of control; the T/C (T/C endpoint: median survival time, dose: 50.0 mg/kg/injection, schedule: Q03HX008 (ip), vehicle: saline) is 131 % of control; the T/C (T/C endpoint: median survival time, dose: 50.0 mg/kg/injection, schedule: Q03HX024 (ip), vehicle: saline) is 125 % of control. Further, the T/C was 141 % of control (T/C endpoint: median survival time, dose: 50.0 mg/kg/injection, schedule: Q04DX003 (ip), vehicle: saline); 148 % of control (T/C endpoint: median survival time, dose: 64.0 mg/kg/injection, schedule: Q01DX009 (ip), vehicle: saline); 145 % of control (T/C endpoint: median survival time, dose: 64.0 mg/kg/injection, schedule: Q01DX009 (oral), vehicle: saline); 132 % of control (T/C endpoint: median survival time, dose: 64.0 mg/kg/injection, schedule: Q03HX008 (ip), vehicle: saline); 145 % of control (T/C endpoint: median survival time, dose: 64.0 mg/kg/injection, schedule: Q03HX016 (ip), vehicle: saline); 145 % of control (T/C endpoint: median survival time, dose: 100.0 mg/kg/injection, schedule: Q03HX008 (ip), vehicle: saline). Moreover, the T/C under setting [1] was 125 % of control; the T/C (T/C endpoint: median survival time, dose: 128.0 mg/kg/injection, schedule: Q03HX008 (ip), vehicle: saline) was 131 % of control [9 of 10 alive]; the T/C (T/C endpoint: median survival time, dose: 128.0 mg/kg/injection, schedule: Q03HX016 (ip), vehicle: saline) is 148 % of control; the T/C (T/C endpoint: median survival time, dose: 200.0 mg/kg/injection, schedule: Q04DX003 (ip), vehicle: saline) was 130 % of control; the T/C (T/C endpoint: median survival time, dose: 256.0 mg/kg/injection, schedule: Q01DX009 (sc), vehicle: saline) is 147 % of control; the T/C (T/C endpoint: median survival time, dose: 256.0 mg/kg/injection, schedule: Q04DX003 (ip), vehicle: saline) was 125 % of control. In addition, the T/C runs as follows: (T/C endpoint: median survival time, dose: 400.0 mg/kg/injection, schedule: Q04DX003 (ip), vehicle: saline) 147 % of control; (T/C endpoint: median survival time, dose: 512.0 mg/kg/injection, schedule: Q04DX003 (ip), vehicle: saline) 132 % of control; (T/C endpoint: median survival time, dose: 1024.0 mg/kg/injection, schedule: Q01DX001 (oral), vehicle: saline) 125 % of control; (T/C endpoint: median survival time, dose: 1024.0 mg/kg/injection, schedule: Q04DX003 (ip), vehicle: saline) 147 % of control; (T/C endpoint: median survival time, dose: 2048.0 mg/kg/injection, schedule: Q01DX001 (oral), vehicle: saline) 132 and 137 % of control. Moreover, the survivor count is 10 of 10 under setting [1]; 10 of 10 (T/C endpoint: median survival time, dose: 512.0 mg/kg/injection, schedule: Q01DX009 (oral), vehicle: saline); 4 of 10 and 8 of 10 (T/C endpoint: median survival time, dose: 1024.0 mg/kg/injection, schedule: Q01DX009 (oral), vehicle: saline); 1 of 10 and 6 of 10 (T/C endpoint: median survival time, dose: 2048.0 mg/kg/injection, schedule: Q01DX009 (oral), vehicle: saline).
In the case of `CCCCCCCCCCCC(C1CCC(C)CC1)C1CCC(C)CC1` (stereo not given), the survivor count (T/C endpoint: mean survival time, dose: 200.0 mg/kg/injection, schedule: Q01DX001 (ip), vehicle: saline with Tween-80) was 6 of 6.
For `C=C(C(=O)O)C(=O)O`, the survivor count (T/C endpoint: mean survival time, dose: 400.0 mg/kg/injection, schedule: Q04DX003 (ip), vehicle: saline with Tween-80) is listed as 2 of 6.
As to `CCC(C)Nc1ccc(N)cc1` (stereo not given), the survivor count (T/C endpoint: mean survival time, dose: 100.0 mg/kg/injection, schedule: Q01DX009 (ip), vehicle: carboxymethylcellulose (CMC)) is given as 0 of 6; the survivor count (T/C endpoint: mean survival time, dose: 200.0 mg/kg/injection, schedule: Q01DX009 (ip), vehicle: carboxymethylcellulose (CMC)) was 0 of 6; the survivor count (T/C endpoint: mean survival time, dose: 400.0 mg/kg/injection, schedule: Q01DX009 (ip), vehicle: carboxymethylcellulose (CMC)) is given as 0 of 6.
Take `ClC(Cl)(Cl)SSSC(Cl)(Cl)Cl`: the survivor count reads like this: (T/C endpoint: mean survival time, dose: 75.0 mg/kg/injection, schedule: Q01DX001 (ip), vehicle: other) 2 of 6; (T/C endpoint: mean survival time, dose: 150.0 mg/kg/injection, schedule: Q01DX001 (ip), vehicle: other) 0 of 6; (T/C endpoint: mean survival time, dose: 300.0 mg/kg/injection, schedule: Q01DX001 (ip), vehicle: other) 0 of 6.
